This data set concerns Hela cells. The experiment in a line: Cell viability assay (CellTiter-Blue). The following applies: IC50 of Cell Viability/IC50 of pSTAT1 inhibition. The data set is classed as cell-based. The protocol:
Cell viability assay was carried out by plating 10,000 cells/well in 96-well plates. 3-Fold 8 serial dilutions of the compounds from 3 mM were made in DMEM. HeLa cells were treated for 24 h with the compounds of different concentrations made. In case of preincubation with IFNγ, 6000 U·ml^−1 of IFNγ per concentration of compounds were used and incubated for 20 min. According to manufacturer's protocol,
CellTiter-Blue® reagent was added after 24 h treatment and cells were incubated for 3 h before recording fluorescence intensities (λex. 560/20 nm; λem. 590/10 nm) using a Perkin Elmer Wallac 1420 Victor2 Microplate Reader.
A general note: The colour change of resazurin is a common sign of viable cells or microbes.

`C#Cc1ccc(C=C2C(=O)NC(=S)N(c3cccc(Br)c3)C2=O)o1` [Compound 5a, (1-(3-bromophenyl)-5-((5-ethynylfuran-2-yl)methylene)-2-thioxodihydropyrimidine-4,6(1H,5H)-dione)] returned a Therapeutic index of 307.

`C#Cc1ccc(C=C2C(=O)N(c3cccc(F)c3)C(=S)N(c3cccc(F)c3)C2=O)o1` [Compound 5k, 5-((5-ethynylfuran-2-yl)methylene)-1,3-bis(3-fluorophenyl)-2-thioxodihydropyrimidine-4,6(1H,5H)-dione]: the Therapeutic index is 16.

Take `C#Cc1ccc(C=C2C(=O)NC(=S)N(c3cccc(F)c3)C2=O)o1` [Compound 5b, 5-((5-ethynylfuran-2-yl)methylene)-1-(3-fluorophenyl)-2-thioxodihydropyrimidine-4,6(1H,5H)-dione]: the Therapeutic index is given as 16.

Regarding `C#Cc1ccc(C=C2C(=O)N(c3cccc(Br)c3)C(=S)N(c3cccc(Br)c3)C2=O)o1` [Compound 5j, 1,3-bis(3-bromophenyl)-5-((5-ethynylfuran-2-yl)methylene)-2-thioxodihydropyrimidine-4,6(1H,5H)-dione], the Therapeutic index is 66.58.

The values above are taken from patent US20250051314A1, “SMALL MOLECULE INHIBITORS OF INTERFERON GAMMA SIGNALING” (INSTITUT CURIE, priority 2021, published 2025).
